Results on 1 substance are retold here after PMC7317872.

Results are given in words; binding and its absence hold for the method and conditions named. Some entries that bind do so weakly or less than the wild type.

The target in this experiment is T1, Cdh23 EC1-2 (WT) (mouse) (UniProt Q99PF4).
T1 sequence: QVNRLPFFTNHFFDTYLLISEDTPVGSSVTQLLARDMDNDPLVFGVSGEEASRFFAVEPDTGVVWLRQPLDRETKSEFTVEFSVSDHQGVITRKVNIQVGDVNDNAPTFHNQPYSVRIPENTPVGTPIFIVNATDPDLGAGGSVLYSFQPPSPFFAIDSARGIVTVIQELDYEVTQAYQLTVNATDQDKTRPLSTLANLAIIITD
The experiment in a line: live-cell binding to protein-coated surface; protein anchored by its C terminus to glass (sortagging); 10^4 live A549 cells, 2 h, 2 mM Ca2+ buffer, washed; cells counted from images and by MTT; only the target purified.

With “Cdh23 (full-length, variant-1) on A549 cells (from UniProt Q9H251 24-3354)”, the binding entry is on record as “binds”.
